Test results published in paper PMC8329713, “The identification and structural analysis of potential 14-3-3 interaction sites on the bone regulator protein Schnurri-3” (Acta Crystallographica. Section F, Structural Biology …, 2021).
These are yes or no findings as the source states them, for the method shown. Some entries that bind do so weakly or less than the wild type.

Protein sequences, listed by entry. Tags and fused reporters are not part of them.
UniProt P63104: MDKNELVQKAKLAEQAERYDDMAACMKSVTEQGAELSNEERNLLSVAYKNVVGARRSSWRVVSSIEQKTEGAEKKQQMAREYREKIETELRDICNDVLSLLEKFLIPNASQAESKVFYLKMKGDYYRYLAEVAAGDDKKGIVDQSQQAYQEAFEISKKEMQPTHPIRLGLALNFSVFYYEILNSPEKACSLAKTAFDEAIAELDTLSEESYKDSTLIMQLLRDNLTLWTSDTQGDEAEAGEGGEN
UniProt P62258: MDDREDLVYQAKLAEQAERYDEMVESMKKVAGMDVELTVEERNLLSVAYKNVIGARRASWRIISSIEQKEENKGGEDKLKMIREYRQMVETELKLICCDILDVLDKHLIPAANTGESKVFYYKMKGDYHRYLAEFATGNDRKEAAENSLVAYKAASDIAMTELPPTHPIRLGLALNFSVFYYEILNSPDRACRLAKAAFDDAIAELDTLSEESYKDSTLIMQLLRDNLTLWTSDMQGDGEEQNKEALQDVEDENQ
UniProt P31946: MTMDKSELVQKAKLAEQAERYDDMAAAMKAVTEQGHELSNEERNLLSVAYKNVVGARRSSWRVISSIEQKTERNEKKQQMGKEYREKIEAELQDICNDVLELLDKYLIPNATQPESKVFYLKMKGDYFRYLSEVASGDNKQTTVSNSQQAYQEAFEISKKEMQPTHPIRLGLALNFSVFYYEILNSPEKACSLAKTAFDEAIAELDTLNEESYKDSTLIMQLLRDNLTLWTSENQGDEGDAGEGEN

T1: SHN3pT869 peptide, N-terminally FITC-Ahx-labelled (human)
T1 sequence (peptide, phosphothreonine at 869; FITC-Ahx on the N-terminus): PDRPDTEPEPPP

T2: 14-3-3σΔC (residues 231–248 deleted) (human) (UniProt P31947)
T2 sequence: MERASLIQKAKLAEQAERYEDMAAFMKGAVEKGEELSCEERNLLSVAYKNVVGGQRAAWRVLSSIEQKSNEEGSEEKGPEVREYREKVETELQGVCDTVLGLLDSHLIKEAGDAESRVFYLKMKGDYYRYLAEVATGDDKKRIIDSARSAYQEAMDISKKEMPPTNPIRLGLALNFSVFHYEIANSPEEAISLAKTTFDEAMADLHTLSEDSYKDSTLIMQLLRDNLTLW


Columns and labels:
[1] = biological target: T1, SHN3pT869 peptide, N-terminally FITC-Ahx-labelled (human); assay: fluorescence polarisation; 14-3-3 isoforms (full length) serially diluted twofold in the presence of 10 nM FITC-labelled peptide; 50 mM Tris pH 7.5, 150 mM NaCl, 5 mM MgCl2, 0.05% Tween-20 (no reducing agent listed); one-site specific binding model; both purified
[2] = biological target: T2, 14-3-3σΔC (residues 231–248 deleted) (human); assay: crystal structure; 14-3-3σΔC at 10–15 mg/ml mixed with peptide in 1:1 and 1:1.2 molar ratios, overnight at 4°C in 20 mM HEPES pH 7.5, 2 mM MgCl2; crystals in 95 mM HEPES pH 7.1–7.7, 24–29% PEG 400, 190 mM CaCl2, 5% glycerol at 4°C; both purified

| Molecule | binding [1] | binding [2] |
| --- | --- | --- |
| 14-3-3ζ (full length) (from UniProt P63104 1-245) | binds weakly | – |
| 14-3-3ɛ (full length) (from UniProt P62258 1-255) | binds weakly | – |
| 14-3-3β (full length) (from UniProt P31946 1-246) | binds weakly | – |
| 14-3-3γ (full length) (protein, UniProt P61981 1-247) MVDREQLVQKARLAEQAERYDDMAAAMKNVTELNEPLSNEERNLLSVAYKNVVGARRSSWRVISSIEQKTSADGNEKKIEMVRAYREKIEKELEAVCQDVLSLLDNYLIKNCSETQYESKVFYLKMKGDYYRYLAEVATGEKRATVVESSEKAYSEAHEISKEHMQPTHPIRLGLALNYSVFYYEIQNAPEQACHLAKTAFDDAIAELDTLNEDSYKDSTLIMQLLRDNLTLWTSDQQDDDGGEGNN | binds weakly | – |

Next, values leading:

| binding [1] | binding [2] | Molecule |
| --- | --- | --- |
| binds weakly | – | 14-3-3τ (full length) (protein, UniProt P27348 1-245) MEKTELIQKAKLAEQAERYDDMATCMKAVTEQGAELSNEERNLLSVAYKNVVGGRRSAWRVISSIEQKTDTSDKKLQLIKDYREKVESELRSICTTVLELLDKYLIANATNPESKVFYLKMKGDYFRYLAEVACGDDRKQTIDNSQGAYQEAFDISKKEMQPTHPIRLGLALNFSVFYYEILNNPELACTLAKTAFDEAIAELDTLNEDSYKDSTLIMQLLRDNLTLWTSDSAGEECDAAEGAEN |
| – | binds weakly | PDRPDTEPEPPP (phosphothreonine at 869; N-terminal acetyl) [SHN3pT869 peptide, N-terminally acetylated] |
| binds weakly | – | 14-3-3η (full length) (protein, UniProt Q04917 1-246) MGDREQLLQRARLAEQAERYDDMASAMKAVTELNEPLSNEDRNLLSVAYKNVVGARRSSWRVISSIEQKTMADGNEKKLEKVKAYREKIEKELETVCNDVLSLLDKFLIKNCNDFQYESKVFYLKMKGDYYRYLAEVASGEKKNSVVEASEAAYKEAFEISKEQMQPTHPIRLGLALNFSVFYYEIQNAPEQACLLAKQAFDDAIAELDTLNEDSYKDSTLIMQLLRDNLTLWTSDQQDEEAGEGN |
